# Hit rate of the full screen: of about 300,000 compounds, about 3,700 (1.2%) were called active. The inconclusive results got no clear call from the source; some entries with a clear call stand among them for comparison. Calls follow the shape of the full dose curve; tested in HEK293 cells. A potency beside an inconclusive call is a rough fit, not a confirmed value.
# Test: qHTS for Inhibitors of binding or entry into cells for Lassa Virus; also: nearly all actives have a fitted effect of over 50% in size
# Settings: Lassa virus pseudotype entry inhibition, cell reporter; activity change, negative = inhibition: at 37.9 µM (top of the series) unless noted
# % is scaled to controls: 0 for no effect and ±100 for the full control effect; potency is read from the fitted curve at half-maximal effect.
Structure (SMILES),Potency,"activity change, negative = inhibition"
Cc1ccc(NC(=O)/C=C/c2ccco2)cc1F,"inconclusive: 7.08 µM [inhibitor, partial curve, poor fit]",–
O=C(COc1ccccc1)Nc1cccc(-c2nc3ccccc3[nH]2)c1,"inconclusive: 35.5 µM [inhibitor, single point]",–
Cn1c(-c2ccc3ccccc3n2)nc2cnccc21,"inconclusive: 0.316 µM [activator, partial curve, poor fit]",–
O=C(c1ccco1)N1CCN(Cc2cccc3ccccc23)CC1,active: 10 µM,–
CCCCOc1ccc(C(=O)NCc2cn3cccc(C)c3n2)cc1,–,inactive: 11.5% [at 46.1 µM]
Cc1cc2nnc(SCC(=O)OC(C)C)n2c2ccccc12,"inconclusive: 0.164 µM [activator, single point]",–
Fc1ccccc1N1CCN(c2ncnc3onc(-c4ccc(Cl)cc4)c23)CC1,"inconclusive: 22.4 µM [inhibitor, single point]",–
S=C(Nc1ccc(Cl)cc1Cl)NC1CCN(Cc2ccccc2)CC1,"inconclusive: 32.6 µM [inhibitor, single point]",–
N/C(=N\OC(=O)c1cccc(Cl)c1)c1cccnc1,"inconclusive: 12.6 µM [activator, single point]",–
CCC(C)(C)n1nnnc1C(c1cc2cc3c(cc2[nH]c1=O)OCO3)N1CCCCC1 (centres undefined),–,inactive: 5.68%
Nc1cc(=O)[nH]c(SCC(=O)Nc2cc(S(=O)(=O)N3CCCCCC3)ccc2Cl)n1,–,inactive: -1.58%
CCCOc1ccccc1C(=O)N(Cc1cccc(Br)c1)C1CCS(=O)(=O)C1 (centres undefined),"inconclusive: 10 µM [inhibitor, partial curve, poor fit]",–
COc1cc2c(cc1NC(=O)c1ccncc1)oc1ccccc12,–,inactive: 12.6%
COc1ccc(-c2nc(CS(=O)(=O)CC(=O)NCc3ccc(F)cc3)c(C)o2)cc1,–,inactive: 6.81% [at 46.1 µM]
Cc1cc(C)c(NC(=O)c2oc3c(c2C)-c2[nH]ncc2CC3)c(C)c1,"inconclusive: 5.62 µM [activator, single point]",–
CC(C)Sc1nc2ccc(Br)cc2[nH]1,–,inactive: 7.02% [at 46.1 µM]
CCOc1ccc(CCNC(=O)c2ccc(C)c(NC3=NC4CS(=O)(=O)CC4S3)c2)cc1 (centres undefined),"inconclusive: 35.5 µM [activator, single point]",–
Cc1c(C(=O)Nc2ccc(Oc3ccccc3)cc2)sc2nc3n(c(=O)c12)CCC3,"inconclusive: 12.6 µM [inhibitor, partial curve]",–
Cn1nnnc1Sc1ncnc2scc(-c3ccccc3)c12,"inconclusive: 15.8 µM [inhibitor, single point]",–
CC(C)C(C(=O)NCC1CCCO1)N(CC1CCCO1)C(=O)CNS(=O)(=O)c1ccccc1 (centres undefined),–,inactive: 25.9% [at 46.1 µM]
Cc1cccc(CN2CCN(CC(=O)NCCc3ccc(Cl)cc3)C2=O)c1,"inconclusive: 1.41 µM [inhibitor, partial curve, poor fit]",–
COc1ccc(NC(=S)N(CCN(C)C)C(C)c2ccco2)cc1 (centres undefined),"inconclusive: 1.41 µM [inhibitor, single point]",–

# 3 compounds picked at random from the list so far, as already listed:
Structure (SMILES),Potency,"activity change, negative = inhibition"
CCOc1ccc(CCNC(=O)c2ccc(C)c(NC3=NC4CS(=O)(=O)CC4S3)c2)cc1 (centres undefined),"inconclusive: 35.5 µM [activator, single point]",–
CCCCOc1ccc(C(=O)NCc2cn3cccc(C)c3n2)cc1,–,inactive: 11.5% [at 46.1 µM]
Cn1c(-c2ccc3ccccc3n2)nc2cnccc21,"inconclusive: 0.316 µM [activator, partial curve, poor fit]",–

# Remaining list, next part.

Structure (SMILES),Potency,"activity change, negative = inhibition"
O=C(Nc1ccccc1NC(=O)c1ccco1)c1ccccc1,–,inactive: 5.05%
COC(=O)C=C1CCC2C3CCC4=CC(=O)C(Br)CC4(C)C3C(=O)CC12C (centres undefined),"inconclusive: 0.1 µM [inhibitor, full curve, poor fit]",–
CCCNC(=O)c1cnn(-c2ccc(C)c(C)c2)c1C1CCN(C(=O)OC(C)(C)C)CC1,"inconclusive: 1.26 µM [inhibitor, full curve, poor fit]",–
COc1ccc(C2=NOC(C(=O)NCc3cccs3)C2)cc1 (centres undefined),"inconclusive: 7.3 µM [inhibitor, partial curve, poor fit]",–
COc1ccc(OC(=O)c2cc3ccccc3o2)cc1,"inconclusive: 0.112 µM [activator, full curve, poor fit]",–
COc1ccccc1N1CCN(c2ncnc3c2cnn3-c2ccc(C)cc2)CC1,"inconclusive: 3.98 µM [activator, single point]",–
Cc1ccc(-n2c(CCc3ccccc3)n[nH]c2=S)cc1C,"inconclusive: 0.355 µM [inhibitor, full curve, poor fit]",–
CCCCCSc1nnc2c(n1)[nH]c1c(C)cccc12,"inconclusive: 5.01 µM [activator, full curve, poor fit]",–
O=C(NCc1ccco1)Nc1cccs1,"inconclusive: 11.2 µM [inhibitor, single point]",–
COc1ccc(CNC(=O)C2CC(O)CN2C(=O)Nc2ccccc2)cc1 (centres undefined),"inconclusive: 1 µM [activator, full curve, poor fit]",–
COC(=O)CNC(=O)CN1C(=O)N(c2cccc(Cl)c2)C(N(O)C(=O)Nc2cccc(Cl)c2)C1(C)C (centres undefined),–,inactive: -2.02%
COc1ccccc1C(=O)N1CCN(Cc2cccnc2)CC1,–,inactive: -1.47% [at 46.1 µM]
CCCCCn1ccc(=O)c2c(C(F)(F)F)nccc21,"inconclusive: 4.61 µM [inhibitor, partial curve, poor fit]",–
Cc1c(C(=O)Nc2ccc(F)c(Cl)c2)sc2nc3n(c(=O)c12)CCC3,"inconclusive: 15.8 µM [inhibitor, single point]",–
COc1ccccc1-c1cc(C(=O)N2CCN(c3ccc(F)cc3)CC2)no1,–,inactive: -28.9%
CCOC(=O)C1(Cc2cccc(Cl)c2)CCCN(C(=O)c2ccnn2C)C1 (centres undefined),–,inactive: -0.121%
Cc1ccc(CNC(=O)CNC(=S)N(Cc2ccccc2)Cc2ccccc2F)cc1,"inconclusive: 8.91 µM [inhibitor, partial curve, poor fit]",–
Cc1nc2nc(C)c(CCC(=O)NCc3ccc4c(c3)OCO4)c(C)n2n1,–,inactive: -8.21%
O=C(CCC1CCCN(C(=O)Cc2cccc(F)c2)C1)N1CCN(c2ccccn2)CC1 (centres undefined),"inconclusive: 35.5 µM [inhibitor, partial curve, poor fit]",–
COc1ccc(/C=N/Nc2cc(C)nc(-n3nc(C)cc3C)n2)c(OC)c1,active: 20.6 µM,–
CC(C)(C)OC(=O)N1CCC(c2c(C(=O)NCCN3CCOCC3)cnn2-c2cccc(Cl)c2)CC1,"inconclusive: 5.62 µM [inhibitor, single point]",–
O=C(Nc1cccc(Cl)c1)OCCOC(=O)Nc1cccc(Cl)c1,"inconclusive: 10 µM [inhibitor, partial curve, poor fit]",–
